The other results are listed elsewhere or left out.
Tests used:
Assay in all cases: log2 fold change, soluble protein after heating vs DMSO (PISA); higher = thermal stabilisation; K562 cells, 10 uM, 30 min; active = over 0.2 and 3.5 SD of the protein, either way, in both replicates (recomputed)
[1] = compound: C1=CC=C(C=C1)[C@H](COC2=CC3=C(C=C2)NC(=O)N3)NC(=O)C4=CC=CN(C4=O)CC5=CC(=C(C=C5)F)F
Summary of the method: (§1)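 Aliquots of K562 cells (2×10^6 cells/mL) treated with 10 μM compound for 30 min were heated for 3 min over 48°C-58°C. After pooling and extraction in PBS with 0.5% NP-40 at 4°C, soluble protein from a 21,000xg, 90 min spin was quantified by TMTpro 16plex LC-MS/MS with channel sums equalised. Thermal stability is expressed against control samples, from duplicates, as a log2 fold change.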

The chains behind the UniProt entries cited, without tags or fusion partners. Where a name states a change or a piece, a line headed by the entry shows the natural chain unless it says otherwise.
UniProt O00142: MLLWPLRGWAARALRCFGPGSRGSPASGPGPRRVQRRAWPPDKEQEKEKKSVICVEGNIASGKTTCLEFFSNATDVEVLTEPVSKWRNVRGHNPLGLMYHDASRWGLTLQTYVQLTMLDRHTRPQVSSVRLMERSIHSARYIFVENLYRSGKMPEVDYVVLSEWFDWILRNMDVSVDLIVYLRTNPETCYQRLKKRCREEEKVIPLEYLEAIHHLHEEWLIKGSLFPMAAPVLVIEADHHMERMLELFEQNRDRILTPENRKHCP
UniProt Q9BTW9: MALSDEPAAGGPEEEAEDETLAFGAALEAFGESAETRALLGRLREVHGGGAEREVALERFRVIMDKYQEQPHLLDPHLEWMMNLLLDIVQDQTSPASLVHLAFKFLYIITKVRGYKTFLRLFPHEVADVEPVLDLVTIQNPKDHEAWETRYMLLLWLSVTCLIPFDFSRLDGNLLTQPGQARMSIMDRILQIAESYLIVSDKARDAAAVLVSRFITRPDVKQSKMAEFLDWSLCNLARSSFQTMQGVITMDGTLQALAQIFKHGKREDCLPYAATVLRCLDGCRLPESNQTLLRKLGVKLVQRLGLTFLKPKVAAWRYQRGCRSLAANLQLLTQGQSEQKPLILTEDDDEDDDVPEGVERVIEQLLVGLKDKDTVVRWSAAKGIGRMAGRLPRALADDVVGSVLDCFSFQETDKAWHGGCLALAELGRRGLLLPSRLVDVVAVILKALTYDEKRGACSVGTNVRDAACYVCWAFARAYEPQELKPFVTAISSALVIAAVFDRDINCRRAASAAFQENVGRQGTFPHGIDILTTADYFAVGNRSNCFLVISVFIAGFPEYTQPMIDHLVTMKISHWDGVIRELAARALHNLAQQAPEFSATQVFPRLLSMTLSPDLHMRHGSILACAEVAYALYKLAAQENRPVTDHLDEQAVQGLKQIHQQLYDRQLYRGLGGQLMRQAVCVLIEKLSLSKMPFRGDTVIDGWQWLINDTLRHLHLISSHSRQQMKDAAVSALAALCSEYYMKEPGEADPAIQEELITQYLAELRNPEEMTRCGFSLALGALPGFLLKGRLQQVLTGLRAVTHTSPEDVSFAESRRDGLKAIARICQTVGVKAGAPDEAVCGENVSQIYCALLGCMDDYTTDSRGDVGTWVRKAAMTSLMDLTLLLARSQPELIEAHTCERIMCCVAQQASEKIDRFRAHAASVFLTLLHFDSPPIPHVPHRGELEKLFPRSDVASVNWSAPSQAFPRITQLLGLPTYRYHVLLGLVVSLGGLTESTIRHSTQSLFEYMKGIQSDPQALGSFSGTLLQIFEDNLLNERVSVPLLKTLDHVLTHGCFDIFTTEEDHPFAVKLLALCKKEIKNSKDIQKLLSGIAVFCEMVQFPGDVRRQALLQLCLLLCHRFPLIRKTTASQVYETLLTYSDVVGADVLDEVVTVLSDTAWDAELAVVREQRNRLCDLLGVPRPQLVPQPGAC
UniProt O43493: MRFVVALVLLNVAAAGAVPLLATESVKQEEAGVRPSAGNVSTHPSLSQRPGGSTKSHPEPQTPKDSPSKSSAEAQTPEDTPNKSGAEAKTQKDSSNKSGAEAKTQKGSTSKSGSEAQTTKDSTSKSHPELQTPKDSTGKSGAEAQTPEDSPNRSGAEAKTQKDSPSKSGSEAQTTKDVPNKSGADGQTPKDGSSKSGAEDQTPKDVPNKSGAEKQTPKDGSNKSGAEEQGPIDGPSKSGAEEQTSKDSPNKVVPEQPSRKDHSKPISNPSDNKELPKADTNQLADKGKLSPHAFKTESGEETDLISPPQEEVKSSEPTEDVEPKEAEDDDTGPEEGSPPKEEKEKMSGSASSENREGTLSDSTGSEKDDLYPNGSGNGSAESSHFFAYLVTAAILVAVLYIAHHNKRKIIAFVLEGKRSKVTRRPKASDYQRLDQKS
UniProt P62072: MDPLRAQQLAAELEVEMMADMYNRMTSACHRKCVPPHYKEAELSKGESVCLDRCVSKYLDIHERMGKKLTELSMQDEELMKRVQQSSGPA
UniProt Q13769: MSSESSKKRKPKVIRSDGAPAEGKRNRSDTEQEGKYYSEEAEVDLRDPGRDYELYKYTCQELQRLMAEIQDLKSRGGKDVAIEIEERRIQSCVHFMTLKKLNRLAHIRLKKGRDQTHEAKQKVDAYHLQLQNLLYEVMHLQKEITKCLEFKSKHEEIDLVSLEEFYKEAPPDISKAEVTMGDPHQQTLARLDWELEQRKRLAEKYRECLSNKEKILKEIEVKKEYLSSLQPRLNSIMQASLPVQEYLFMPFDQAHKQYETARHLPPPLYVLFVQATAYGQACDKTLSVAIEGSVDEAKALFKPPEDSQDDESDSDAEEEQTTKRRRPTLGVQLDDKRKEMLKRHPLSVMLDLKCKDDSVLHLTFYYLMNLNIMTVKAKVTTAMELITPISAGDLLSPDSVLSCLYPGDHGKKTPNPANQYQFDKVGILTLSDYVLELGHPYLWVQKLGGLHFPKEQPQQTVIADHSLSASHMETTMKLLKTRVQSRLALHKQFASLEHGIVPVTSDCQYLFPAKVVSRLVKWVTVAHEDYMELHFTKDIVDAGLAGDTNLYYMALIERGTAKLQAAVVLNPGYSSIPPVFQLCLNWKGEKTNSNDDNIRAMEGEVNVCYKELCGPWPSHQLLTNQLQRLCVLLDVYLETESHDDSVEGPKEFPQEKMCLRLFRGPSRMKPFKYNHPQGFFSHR
UniProt Q9Y6I9: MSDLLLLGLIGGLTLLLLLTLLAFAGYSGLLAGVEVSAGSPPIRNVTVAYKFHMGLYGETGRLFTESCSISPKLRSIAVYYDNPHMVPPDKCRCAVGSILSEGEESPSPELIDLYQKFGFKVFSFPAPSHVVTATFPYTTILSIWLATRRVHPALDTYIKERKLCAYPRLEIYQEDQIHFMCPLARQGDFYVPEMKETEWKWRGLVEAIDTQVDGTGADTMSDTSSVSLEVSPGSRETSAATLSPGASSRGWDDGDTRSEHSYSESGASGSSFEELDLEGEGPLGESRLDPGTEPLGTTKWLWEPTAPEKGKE
UniProt Q99426: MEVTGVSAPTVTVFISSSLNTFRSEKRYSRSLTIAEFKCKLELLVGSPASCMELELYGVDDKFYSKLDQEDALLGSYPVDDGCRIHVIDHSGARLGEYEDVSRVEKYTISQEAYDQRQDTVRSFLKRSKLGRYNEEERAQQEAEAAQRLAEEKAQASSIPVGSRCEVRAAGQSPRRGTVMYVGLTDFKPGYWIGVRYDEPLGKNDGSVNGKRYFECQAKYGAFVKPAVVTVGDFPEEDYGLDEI
UniProt O75663: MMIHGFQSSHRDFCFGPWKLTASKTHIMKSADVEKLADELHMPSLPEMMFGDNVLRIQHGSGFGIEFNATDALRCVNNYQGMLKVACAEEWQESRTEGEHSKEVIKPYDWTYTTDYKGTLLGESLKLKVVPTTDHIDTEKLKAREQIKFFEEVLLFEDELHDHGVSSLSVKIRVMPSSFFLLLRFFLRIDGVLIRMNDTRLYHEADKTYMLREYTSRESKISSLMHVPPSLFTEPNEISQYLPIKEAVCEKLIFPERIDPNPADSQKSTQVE
UniProt O60830: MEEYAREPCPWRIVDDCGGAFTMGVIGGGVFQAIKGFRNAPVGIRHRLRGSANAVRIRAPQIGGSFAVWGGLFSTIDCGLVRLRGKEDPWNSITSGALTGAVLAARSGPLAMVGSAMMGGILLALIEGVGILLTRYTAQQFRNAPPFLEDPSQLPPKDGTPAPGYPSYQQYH
UniProt Q5JUR7: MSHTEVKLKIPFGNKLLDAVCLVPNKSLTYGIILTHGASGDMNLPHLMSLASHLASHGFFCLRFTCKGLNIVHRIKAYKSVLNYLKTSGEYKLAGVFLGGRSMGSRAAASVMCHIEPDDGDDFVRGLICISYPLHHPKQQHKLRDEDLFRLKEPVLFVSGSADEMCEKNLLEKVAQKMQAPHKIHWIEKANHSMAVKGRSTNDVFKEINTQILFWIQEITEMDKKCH
UniProt Q99595: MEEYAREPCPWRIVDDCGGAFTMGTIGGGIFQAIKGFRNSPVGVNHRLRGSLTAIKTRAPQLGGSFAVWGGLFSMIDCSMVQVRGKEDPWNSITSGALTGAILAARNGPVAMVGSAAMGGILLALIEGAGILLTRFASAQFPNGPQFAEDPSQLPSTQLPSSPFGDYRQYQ
UniProt P31483: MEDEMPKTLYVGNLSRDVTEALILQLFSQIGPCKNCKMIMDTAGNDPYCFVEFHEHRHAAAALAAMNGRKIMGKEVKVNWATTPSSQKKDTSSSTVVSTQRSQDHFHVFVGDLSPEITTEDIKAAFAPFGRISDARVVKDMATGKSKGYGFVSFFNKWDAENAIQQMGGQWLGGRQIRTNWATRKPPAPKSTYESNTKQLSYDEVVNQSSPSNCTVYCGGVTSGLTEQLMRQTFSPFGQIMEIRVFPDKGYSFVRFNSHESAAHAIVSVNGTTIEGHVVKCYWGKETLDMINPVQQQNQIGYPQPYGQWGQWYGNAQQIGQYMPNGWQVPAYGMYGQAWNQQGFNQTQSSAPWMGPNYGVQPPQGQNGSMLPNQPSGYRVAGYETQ
UniProt Q9BV44: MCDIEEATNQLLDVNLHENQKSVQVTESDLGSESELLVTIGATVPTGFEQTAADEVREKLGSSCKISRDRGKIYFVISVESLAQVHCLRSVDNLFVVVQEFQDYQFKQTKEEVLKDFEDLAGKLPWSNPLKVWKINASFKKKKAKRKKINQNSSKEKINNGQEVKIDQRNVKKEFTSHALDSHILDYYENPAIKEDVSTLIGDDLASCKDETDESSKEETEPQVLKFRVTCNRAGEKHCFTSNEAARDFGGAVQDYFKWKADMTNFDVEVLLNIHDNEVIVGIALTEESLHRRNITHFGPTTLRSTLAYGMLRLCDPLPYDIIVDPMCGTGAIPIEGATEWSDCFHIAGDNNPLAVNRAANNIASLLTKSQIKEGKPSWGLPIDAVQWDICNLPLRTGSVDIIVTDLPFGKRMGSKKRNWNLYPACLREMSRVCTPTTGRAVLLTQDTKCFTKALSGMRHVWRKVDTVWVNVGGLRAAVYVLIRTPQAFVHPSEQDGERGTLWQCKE
UniProt P17987, whole entry, looked up: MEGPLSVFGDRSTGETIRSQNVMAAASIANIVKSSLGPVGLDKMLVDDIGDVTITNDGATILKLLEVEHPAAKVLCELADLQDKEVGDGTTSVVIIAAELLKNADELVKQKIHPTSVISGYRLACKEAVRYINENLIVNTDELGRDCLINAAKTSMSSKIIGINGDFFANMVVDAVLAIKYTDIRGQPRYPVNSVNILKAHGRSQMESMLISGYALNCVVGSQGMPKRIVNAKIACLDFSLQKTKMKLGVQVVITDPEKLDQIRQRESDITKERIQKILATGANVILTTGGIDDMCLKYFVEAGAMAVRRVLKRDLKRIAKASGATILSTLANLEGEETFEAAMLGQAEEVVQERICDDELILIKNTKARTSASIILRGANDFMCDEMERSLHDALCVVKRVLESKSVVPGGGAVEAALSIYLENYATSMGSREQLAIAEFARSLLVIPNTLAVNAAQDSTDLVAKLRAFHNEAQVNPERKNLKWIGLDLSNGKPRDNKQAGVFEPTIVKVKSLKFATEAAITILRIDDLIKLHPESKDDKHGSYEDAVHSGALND
UniProt P04183: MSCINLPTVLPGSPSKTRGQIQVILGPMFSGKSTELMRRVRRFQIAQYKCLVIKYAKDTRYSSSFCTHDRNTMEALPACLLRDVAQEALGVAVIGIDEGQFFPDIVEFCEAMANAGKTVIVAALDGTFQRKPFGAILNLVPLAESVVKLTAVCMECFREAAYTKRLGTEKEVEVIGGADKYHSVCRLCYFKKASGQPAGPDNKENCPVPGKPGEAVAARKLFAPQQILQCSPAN
UniProt Q9UP52: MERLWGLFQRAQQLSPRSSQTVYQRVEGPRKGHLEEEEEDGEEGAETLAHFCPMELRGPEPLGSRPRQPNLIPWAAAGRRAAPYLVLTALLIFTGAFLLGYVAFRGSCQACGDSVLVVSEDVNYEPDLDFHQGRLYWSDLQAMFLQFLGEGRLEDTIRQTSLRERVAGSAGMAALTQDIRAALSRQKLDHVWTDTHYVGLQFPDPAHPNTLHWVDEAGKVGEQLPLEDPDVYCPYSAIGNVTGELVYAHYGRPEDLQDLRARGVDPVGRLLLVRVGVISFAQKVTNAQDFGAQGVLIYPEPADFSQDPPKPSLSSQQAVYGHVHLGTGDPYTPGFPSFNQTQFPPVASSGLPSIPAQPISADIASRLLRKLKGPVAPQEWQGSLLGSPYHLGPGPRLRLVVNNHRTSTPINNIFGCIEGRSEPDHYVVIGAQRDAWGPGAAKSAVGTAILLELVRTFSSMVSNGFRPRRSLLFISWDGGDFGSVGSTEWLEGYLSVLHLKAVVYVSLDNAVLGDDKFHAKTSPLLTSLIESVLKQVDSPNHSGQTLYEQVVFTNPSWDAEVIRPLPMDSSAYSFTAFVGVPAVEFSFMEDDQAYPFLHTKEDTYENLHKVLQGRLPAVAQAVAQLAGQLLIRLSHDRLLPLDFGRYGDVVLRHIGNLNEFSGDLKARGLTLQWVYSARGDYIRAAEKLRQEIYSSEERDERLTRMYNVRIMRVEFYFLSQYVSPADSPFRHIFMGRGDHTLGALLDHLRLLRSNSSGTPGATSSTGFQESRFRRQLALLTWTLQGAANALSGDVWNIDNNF

[2] = compound: CC1=C(SC2=C1C(=N[C@H](C3=NN=C(N32)C)CC(=O)N)C4=CC=C(C=C4)Cl)C
Summary of the method: as §1

[3] = compound: CC1=C2C(=CC=C1)N=C(N(C2=O)C3=CC=CC=C3C)CN4C=NC5=C(N=CN=C54)N
Summary of the method: as §1

[4] = compound: Cc1sc2c(c1C)C(c1ccc(Cl)cc1)=N[C@@H](CC(=O)OC(C)(C)C)c1nnc(C)n1-2
Summary of the method: as §1

[5] = compound: c1ccc([C@@H]2C[C@H]2NC2CCNCC2)cc1
Summary of the method: as §1

Measured: log2 fold change

TEX10 (UniProt Q9NXF1)
inactive: [1] 0.03

THUMPD2 (UniProt Q9BTF0)
inactive: [1] -0.024 | [2] -0.014 | [3] 0.047 | [4] 0.017 | [5] 0.06

TK2 isoform 6 (UniProt O00142)
inactive: [1] 0.111 | [2] -0.107 | [3] 0.051 | [4] 0.008 | [5] 0.021

TBC1D13 (UniProt Q9NVG8)
inactive: [1] -0.013 | [2] 0.035 | [3] 0.069 | [4] -0.033 | [5] -0.008

THNSL1 (UniProt Q8IYQ7)
inactive: [1] -0.04 | [2] -0.01 | [3] 0.009 | [4] -0.025 | [5] 0.011

TIGAR (UniProt Q9NQ88)
inactive: [1] -0.215

TBCD (UniProt Q9BTW9)
inactive: [1] -0.028 | [2] 0.03 | [3] 0.101 | [4] -0.004 | [5] -0.03

TGS1 (UniProt Q96RS0)
inactive: [1] -0.117 | [2] -0.155 | [3] 0.11 | [4] 0.069 | [5] -0.429

TGOLN2 isoform 7 (UniProt O43493)
inactive: [1] 0.042 | [2] 0.052 | [3] 0.015 | [4] 0.007 | [5] 0.047

TKT isoform 2 (UniProt P29401)
inactive: [1] -0.014 | [2] 0.002 | [3] -0.015 | [4] -0.032 | [5] 0.011

TBP (UniProt P20226)
inactive: [1] 0.016 | [2] 0.314 | [3] -0.158 | [4] 0.144 | [5] 0.07

TIMM10 (UniProt P62072)
inactive: [1] -0.013 | [2] -0.043 | [3] 0.042 | [4] -0.033 | [5] 0.022

TBL3 (UniProt Q12788)
inactive: [1] 0.026 | [2] -0.019 | [3] -0.068 | [4] 0.016 | [5] -0.046

TCOF1 isoform 6 (UniProt Q13428)
inactive: [1] 0.209 | [2] 0.151 | [3] -0.251 | [4] 0.271 | [5] 0.029

TESC (UniProt Q96BS2)
inactive: [1] 0.019 | [2] 0.022 | [3] 0.07 | [4] 0.002 | [5] -0.084

TFRC (UniProt P02786)
inactive: [1] 0.058 | [2] 0.032 | [3] 0.008 | [4] 0.011 | [5] 0.021

TCERG1 (UniProt O14776)
inactive: [1] -0.1 | [2] 0.106 | [3] 0.182 | [4] -0.065 | [5] -0.033

THOC5 (UniProt Q13769)
inactive: [1] 0.035 | [2] -0.009 | [3] 0.017 | [4] 0.001 | [5] 0.031

TEX264 (UniProt Q9Y6I9)
inactive: [1] -0.024 | [2] 0.03 | [3] -0.072 | [4] -0.084 | [5] -0.02

TGFBI (UniProt Q15582)
inactive: [1] -0.115 | [2] -0.024 | [3] 0.019 | [4] -0.048 | [5] -0.08

THRAP3 (UniProt Q9Y2W1)
inactive: [1] 0.09 | [2] 0.193 | [3] -0.072 | [4] 0.046 | [5] 0.028

TBCB (UniProt Q99426)
inactive: [1] -0.001 | [2] 0.058 | [3] 0.035 | [4] 0.01 | [5] -0.006

TBCE (UniProt Q15813)
inactive: [1] -0.08 | [2] -0.005 | [3] 0.109 | [4] 0.105 | [5] -0.007

TBC1D4 (UniProt O60343)
inactive: [1] -0.054 | [2] 0.048 | [3] 0 | [4] -0.02 | [5] -0.026

TIMM10B (UniProt Q9Y5J6)
inactive: [1] -0.018 | [2] 0.18 | [3] 0.058 | [4] 0.066 | [5] -0.026

Taken from the results shown (2 entries):
TBC1D4 (UniProt O60343)
inactive: [1] -0.054 | [2] 0.048 | [3] 0 | [4] -0.02 | [5] -0.026

TIMM10B (UniProt Q9Y5J6)
inactive: [1] -0.018 | [2] 0.18 | [3] 0.058 | [4] 0.066 | [5] -0.026

Next results follow.

TBC1D22A (UniProt Q8WUA7)
inactive: [1] 0.021 | [2] 0.065 | [3] -0.026 | [4] -0.006 | [5] 0.026

TEX2 isoform 2 (UniProt Q8IWB9)
inactive: [1] -0.026 | [2] 0.002 | [3] 0.055 | [4] -0.105 | [5] 0.018

TJP1 (UniProt Q07157)
inactive: [1] 0 | [2] 0.028 | [3] 0.069 | [4] 0.014 | [5] 0.023

TIPRL (UniProt O75663)
inactive: [1] -0.078 | [2] 0.07 | [3] 0.083 | [4] 0.001 | [5] -0.007

TIMM13 (UniProt Q9Y5L4)
inactive: [1] -0.049 | [2] 0.049 | [3] 0.012 | [4] -0.035 | [5] 0.013

TGFB1 (UniProt P01137)
inactive: [1] 0.012 | [2] 0.032 | [3] 0.02 | [4] -0.013 | [5] 0.019

TET1 (UniProt Q8NFU7)
inactive: [1] 0.042 | [2] 0.101 | [3] 0.219 | [4] -0.045 | [5] -0.019

TIMM17B (UniProt O60830)
inactive: [1] 0 | [2] 0.028 | [3] -0.102 | [4] 0.056 | [5] 0.001

TEX30 (UniProt Q5JUR7)
inactive: [1] -0.162 | [2] -0.141 | [3] 0.235 | [4] 0.12 | [5] 0.052

THBS1 (UniProt P07996)
inactive: [1] -0.161 | [2] -0.048 | [3] 0.09 | [4] -0.01 | [5] 0.011

TFB2M (UniProt Q9H5Q4)
inactive: [1] -0.019 | [2] 0.035 | [3] 0.103 | [4] -0.019 | [5] -0.022

TIMM17A (UniProt Q99595)
inactive: [1] 0.019 | [2] -0.021 | [3] -0.003 | [4] -0.002 | [5] 0.058

TIA1 (UniProt P31483)
inactive: [1] 0.018 | [2] 0.024 | [3] 0.017 | [4] 0.012 | [5] -0.026

TBC1D23 (UniProt Q9NUY8)
inactive: [1] -0.039 | [2] 0.068 | [3] 0.034 | [4] -0.003 | [5] -0.037

TBL1X (UniProt O60907)
inactive: [1] 0.007 | [2] 0.04 | [3] 0.008 | [4] -0.027 | [5] 0.03

THUMPD3 (UniProt Q9BV44)
inactive: [1] 0.008 | [2] 0.063 | [3] 0.008 | [4] -0.037 | [5] -0.006

TIMM21 (UniProt Q9BVV7)
inactive: [1] -0.02 | [2] 0.052 | [3] 0.024 | [4] 0.004 | [5] -0.048

TBL1XR1 (UniProt Q9BZK7)
inactive: [1] -0.041 | [2] 0.016 | [3] 0.037 | [4] 0.01 | [5] 0.047

TIMP1 (UniProt P01033)
inactive: [1] 0.021 | [2] -0.039 | [3] 0.068 | [4] 0 | [5] 0.077

TCP1 (UniProt P17987)
inactive: [1] 0.001 | [2] 0.011 | [3] -0.012 | [4] -0.011 | [5] -0.01

THYN1 (UniProt Q9P016)
inactive: [1] -0.024 | [2] 0.044 | [3] 0.043 | [4] 0.01 | [5] -0.067

TK1 (UniProt P04183)
inactive: [1] 0.002 | [2] -0.008 | [3] -0.011 | [4] -0.019 | [5] 0.008

TIMM29 (UniProt Q9BSF4)
inactive: [1] -0.034 | [2] 0.114 | [3] -0.026 | [4] -0.006 | [5] 0.031

THOC3 (UniProt Q96J01)
inactive: [1] 0.02 | [2] 0.018 | [3] 0.021 | [4] 0.01 | [5] 0.003

TCEA1 (UniProt P23193)
inactive: [1] -0.067 | [2] 0.002 | [3] 0.003 | [4] -0.013 | [5] -0.026

TFR2 (UniProt Q9UP52)
inactive: [1] 0.01 | [2] 0.018 | [3] 0.004 | [4] 0.007 | [5] 0.026

TKT, A0A0B4J1R6
inactive: [1] -0.236 | [2] 0.046 | [3] 0.165 | [4] 0.157 | [5] 0.093

THADA (UniProt Q6YHU6)
inactive: [1] -0.06 | [2] 0.066 | [3] 0.011 | [4] -0.027 | [5] -0.032

TDP2 isoform 2 (UniProt O95551)
inactive: [1] -0.089 | [2] 0.039 | [3] 0.092 | [4] 0.014 | [5] -0.118

TENT5C (UniProt Q5VWP2)
inactive: [1] 0.017 | [2] 0.25 | [3] 0.122 | [4] 0.116 | [5] -0.35
